Results are given in words; binding and its absence hold for the method and conditions named. For part of these data: In cells and extracts the contact can be indirect. Some results given as binding are weak or reduced against the parent protein; the word gives no strength.

The chains behind the UniProt entries cited, without tags or fusion partners. Where a name states a change or a piece, a line headed by the entry shows the natural chain unless it says otherwise. Residues count along the entry.
UniProt P40763: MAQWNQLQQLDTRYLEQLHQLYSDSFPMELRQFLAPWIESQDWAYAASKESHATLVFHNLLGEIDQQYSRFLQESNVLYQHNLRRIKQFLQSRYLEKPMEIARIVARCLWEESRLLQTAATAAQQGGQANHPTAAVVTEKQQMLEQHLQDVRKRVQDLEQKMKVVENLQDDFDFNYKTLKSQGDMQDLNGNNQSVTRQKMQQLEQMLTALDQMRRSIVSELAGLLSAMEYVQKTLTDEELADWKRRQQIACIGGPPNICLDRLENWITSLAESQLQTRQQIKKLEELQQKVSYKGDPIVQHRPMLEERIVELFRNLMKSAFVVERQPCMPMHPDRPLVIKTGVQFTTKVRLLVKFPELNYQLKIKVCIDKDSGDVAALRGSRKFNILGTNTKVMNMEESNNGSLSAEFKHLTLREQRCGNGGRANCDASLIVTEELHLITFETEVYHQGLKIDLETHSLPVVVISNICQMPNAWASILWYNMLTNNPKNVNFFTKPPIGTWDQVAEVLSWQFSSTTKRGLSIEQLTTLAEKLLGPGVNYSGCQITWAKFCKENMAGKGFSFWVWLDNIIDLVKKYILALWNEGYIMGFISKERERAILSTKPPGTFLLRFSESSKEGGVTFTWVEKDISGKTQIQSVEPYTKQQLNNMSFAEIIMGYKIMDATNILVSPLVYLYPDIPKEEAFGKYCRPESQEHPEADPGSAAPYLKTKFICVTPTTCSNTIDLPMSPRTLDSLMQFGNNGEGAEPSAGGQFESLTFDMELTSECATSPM
UniProt P42227, residues 2-770: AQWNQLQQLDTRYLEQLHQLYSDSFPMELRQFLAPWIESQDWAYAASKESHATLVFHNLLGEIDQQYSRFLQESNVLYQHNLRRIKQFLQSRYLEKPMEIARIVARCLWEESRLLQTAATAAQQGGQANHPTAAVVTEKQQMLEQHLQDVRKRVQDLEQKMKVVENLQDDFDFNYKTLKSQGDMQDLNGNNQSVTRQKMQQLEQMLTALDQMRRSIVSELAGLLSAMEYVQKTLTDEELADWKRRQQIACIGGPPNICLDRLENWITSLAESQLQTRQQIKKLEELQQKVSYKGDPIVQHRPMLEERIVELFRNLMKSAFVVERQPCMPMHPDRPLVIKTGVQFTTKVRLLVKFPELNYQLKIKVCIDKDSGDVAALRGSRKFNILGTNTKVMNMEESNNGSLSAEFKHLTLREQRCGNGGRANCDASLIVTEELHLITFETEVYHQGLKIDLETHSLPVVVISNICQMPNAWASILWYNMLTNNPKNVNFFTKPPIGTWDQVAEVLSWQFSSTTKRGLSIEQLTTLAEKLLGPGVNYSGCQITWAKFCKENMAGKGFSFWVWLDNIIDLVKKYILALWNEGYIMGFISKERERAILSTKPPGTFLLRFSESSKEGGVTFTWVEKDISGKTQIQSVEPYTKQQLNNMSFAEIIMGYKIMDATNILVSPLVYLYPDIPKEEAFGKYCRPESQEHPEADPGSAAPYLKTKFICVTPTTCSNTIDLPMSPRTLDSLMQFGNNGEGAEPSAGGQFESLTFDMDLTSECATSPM
UniProt Q15796: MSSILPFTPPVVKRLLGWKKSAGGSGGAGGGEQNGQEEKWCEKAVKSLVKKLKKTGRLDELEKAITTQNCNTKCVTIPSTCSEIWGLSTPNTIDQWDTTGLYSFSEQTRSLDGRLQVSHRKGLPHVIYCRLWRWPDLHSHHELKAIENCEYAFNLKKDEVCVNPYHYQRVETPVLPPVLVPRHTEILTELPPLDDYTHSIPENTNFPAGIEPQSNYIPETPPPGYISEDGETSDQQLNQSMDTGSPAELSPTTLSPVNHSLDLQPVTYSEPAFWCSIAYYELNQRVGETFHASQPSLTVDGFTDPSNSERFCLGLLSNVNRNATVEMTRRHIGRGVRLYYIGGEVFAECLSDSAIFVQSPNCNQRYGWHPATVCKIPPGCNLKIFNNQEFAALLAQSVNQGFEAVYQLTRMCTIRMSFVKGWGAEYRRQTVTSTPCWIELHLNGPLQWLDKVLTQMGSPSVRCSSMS
UniProt Q9WTL7: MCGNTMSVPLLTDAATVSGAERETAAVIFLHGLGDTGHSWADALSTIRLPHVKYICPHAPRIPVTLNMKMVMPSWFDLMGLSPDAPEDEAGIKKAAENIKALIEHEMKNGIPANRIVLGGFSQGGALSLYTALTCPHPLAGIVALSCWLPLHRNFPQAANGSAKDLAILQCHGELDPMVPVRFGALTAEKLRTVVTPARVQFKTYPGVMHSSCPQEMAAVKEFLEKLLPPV

This is an account of results in patent US20230159931A1, “TARGETING THE PALMOTYLATION/DEPALMOTYLATION CYCLE TO TREAT INFLAMMATORY DISEASES” (CORNELL UNIVERSITY, priority 2020, published 2023).

The target in experiment [1] is Haemagglutinin (HA)-tagged STAT3 (UniProt P40763). The experiment in a line: Flag-SMAD2 pull-down of HA-STAT3, HEK293T cells (FIG. 9D).
Experiment [2] has the same target. The experiment can be described thus: Flag pull-down from HEK293T cells, western blot (FIG. 9D, 9F).
The target of experiment [3] is endogenous STAT3 of mouse splenocytes (mouse) (UniProt P42227). The experiment can be described thus: Flag pull-down from mouse splenocytes (WT, Zdhhc7 knockout, APT2 knockout), western blot (FIG. 10E, 10F). A general note: In western blotting, separated proteins are transferred to a membrane and probed.
Experiment [4] has as its target HA-SMAD2 (UniProt Q15796). The experiment in a line: Flag pull-down from HEK293T cells, western blot (FIG. 9C).
Experiment [5] addresses T1, DHHC7 (mouse) (UniProt Q91WU6).
T1 sequence: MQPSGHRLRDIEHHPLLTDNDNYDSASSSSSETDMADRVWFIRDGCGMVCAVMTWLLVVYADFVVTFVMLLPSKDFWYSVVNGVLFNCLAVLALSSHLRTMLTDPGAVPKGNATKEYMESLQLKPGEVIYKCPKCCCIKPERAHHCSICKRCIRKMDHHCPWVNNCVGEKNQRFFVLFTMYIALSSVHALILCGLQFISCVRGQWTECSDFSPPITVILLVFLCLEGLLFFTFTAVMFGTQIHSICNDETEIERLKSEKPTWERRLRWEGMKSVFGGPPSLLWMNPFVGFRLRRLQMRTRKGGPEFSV
The experiment can be described thus: interaction in cells; method not described in the sentence.

Experiment [6] addresses Flag-STAT3 (UniProt P40763). The experiment can be described thus: Flag-STAT3 pull-down of HA-SMAD2, HEK293T cells (FIG. 9C).
Experiment [7] addresses Flag-tagged APT2 (mouse) (UniProt Q9WTL7). The experiment in a line: STAT3-APT2 interaction experiment repeated in HEK293T cells.
For experiment [8] the target is unchanged. The experiment can be described thus: association of tagged proteins co-expressed in HEK293T cells.

Regarding Flag-SMAD2 (from UniProt Q15796 1-467), the binding entry in experiment [1], in experiment [2] and in experiment [3] was “binds” each time. Consider Flag-STAT3 (from UniProt P40763 1-770), for which the binding result in experiment [4] and in experiment [5] was “binds” each time. HA-SMAD2 (from UniProt Q15796 1-467): in experiment [6], the binding result is on record as “binds”. “HA-tagged phosphorylation site mutant STAT3(Y705F) (from UniProt P40763 1-770)”: the binding result in experiment [7] was “binds”. In the case of “Haemagglutinin (HA)-tagged STAT3 (from UniProt P40763 1-770)”, the binding result in experiment [7] and in experiment [8] was “binds” in each case.
